Measurements taken from patent US20040006777A1, “Human lymphoid protein tyrosine phosphatases” (HSC Research and Development Limited Partnership, priority 1998, published 2004).
These are yes or no findings as the source states them, for the method shown. Binding seen in cells or lysates may run through a third protein. Some results given as binding are weak or reduced against the parent protein; the word gives no strength.

Assays:
[1] = biological target: proto-oncogene c-Cbl (116 kD phosphorylated protein of human thymocytes) (human) (UniProt P22681); assay: co-immunoprecipitation: western blot of Lyp immunoprecipitates from anti-CD3 stimulated human thymocytes; also seen in Jurkat (not shown)
[2] = biological target: proto-oncogene c-Cbl (116 kD phosphorylated protein of human thymocytes) (human) (UniProt P22681); assay: co-immunoprecipitation from human thymocytes, anti-phosphotyrosine and anti-Cbl blots
[3] = biological target: proto-oncogene c-Cbl (116 kD phosphorylated protein of human thymocytes) (human) (UniProt P22681); assay: co-immunoprecipitation from human thymocytes; confirmed in Jurkat cells (data not shown)

binding [1]: binds | binding [2]: binds | binding [3]: binds
B1: Lyp1 (human lymphoid protein tyrosine phosphatase, 105 kD) (enzyme)
chain: MDQREILQKFLDEAQSKKITKEEFANEFLKLKRQSTKYKADKTYPTTVAENAKNIKKNRYKDILPYDYSRVELSLITSDEDSSYINANFIKGVYGPKAYIATQGPLSTTLLDFWRMIWEYSVLIIVMACMEYEMGKKKCERYWAEPGEMQLEFGPFSVSCEAEKRKSDYIIRTLKVKFNSETRTIYQFHYKNWPDHDVPSSIDPILELIWDVRCYQEDDSVPICIHCSAGCGRTGVICAIVDYTWMLLKDGIIPENFSVFSLIREMRTQRPSLVQTQEQYELVYNAVLELFKRQMDVIRDKHSGTESQAKHCIPEKNHTLQADSYSPNLPKSTTKAAKMMNQQRTKMEIKESSSFDFRTSEISAKEELVLHPAKSSTSFDFLELNYSFDKNADTTMKWQTKAFPIVGEPLQKHQSLDLGSLLFEGCSNSKPVNAAGRYFNSKVPITRTKSTPFELIQQRETKEVDSKENFSYLESQPHDSCFVEMQAQKVMHVSSAELNYSLPYDSKHQIRNASNVKHHDSSALGVYSYIPLVENPYFSSWPPSGTSSKMSLDLPEKQDGTVFPSSLLPTSSTSLFSYYNSHSSLSLNSPTNISSLLNQESAVLATAPRIDDEIPPPLPVRTPESFIVVEEAGEFSPNVPKSLSSAVKVKIGTSLEWGGTSEPKKFDDSVILRPSKSVKLRSPKSELHQDRSSPPPPLPERTLESFFLADEDCMQAQSIETYSTSYPDTMENSTSSKQTLKTPGKSFTRSKSLKILRNMKKSICNSCPPNKPAESVQSNNSSSFLNFGFANRFSKPKGPRNPPPTWNI
